This data set deals with HEK293 cells. The experiment in a line: Measurement of receptor protein level on cell membrane (flow cytometry), receptor gene co-transfected with RTP1S. It counts as cell-based, human. Conditions: for change in membrane expression level by the consensus design method: consensus receptor compared with original receptor, HEK293 cells, average values of three experiments; for Original Membrane expression level (%): original receptor on HEK293 cells, PE signal normalised, NC (no receptor) 0%, PC (FLAG-M2 acetylcholine receptor) 100%, average of three experiments. For orientation: A flow cytometer gives signals particle by particle.

B1: TAS2R45: original human bitterness receptor TAS2R45 (protein, listed as Homo sapiens)
chain: MITFLPIIFSILVVVTFVIGNFANGFIALVNSTEWVKRQKISFADQIVTALAVSRVGLLWVLLLNWYSTVLNPAFYSVELRTTAYNIWAVTGHFSNWPATSLSIFYLLKIANFSNLIFLRLKRRVKSVILVVLLGPLLFLACHLFVVNMNQIVWTKEYEGNMTWKIKLRRAMYLSDTTVTMLANLVPFTVTLISFLLLVCSLCKHLKKMQLHGKGSQDPSTKVHIKVLQTVISFFLLRAIYFVSVIISVWSFKNLENKPVFMFCQAIGFSCSSAHPFILIWGNKKLKQTYLSVLWQMRY
For B1, the “change in membrane expression level by the consensus design method” value (from here on “change in membrane expression level”) is “increase” and the “Original Membrane expression level (%)” value is on record as 0.17%.

B2: TAS2R8: original human bitterness receptor TAS2R8 (protein, listed as Homo sapiens)
chain: MFSPADNIFIILITGEFILGILGNGYIALVNWIDWIKKKKISTVDYILTNLVIARICLISVMVVNGIVIVLNPDVYTKNKQQIVIFTFWTFANYLNMWITTCLNVFYFLKIASSSHPLFLWLKWKIDMVVHWILLGCFAISLLVSLIAAIVLSCDYRFHAIAKHKRNITEMFHVSKIPYFEPLTLFNLFAIVPFIVSLISFFLLVRSLWRHTKQIKLYATGSRDPSTEVHVRAIKTMTSFIFFFFLYYISSILMTFSYLMTKYKLAVEFGEIAAILYPLGHSLILIVLNNKLRQTFVRMLTCRKIACMI
Turning to B2, the “change in membrane expression level” value is listed as “increase” and the “Original Membrane expression level (%)” value was determined as 28.58%.

B3: TAS2R42: original human bitterness receptor TAS2R42 (protein, listed as Homo sapiens)
chain: MATELDKIFLILAIAEFIISMLGNVFIGLVNCSEGIKNQKVFSADFILTCLAISTIGQLLVILFDSFLVGLASHLYTTYRLGKTVIMLWHMTNHLTTWLATCLSIFYFFKIAHFPHSLFLWLRWRMNGMIVMLLILSLFLLIFDSLVLEIFIDISLNIIDKSNLTLYLDESKTLYDKLSILKTLLSLTSFIPFSLFLTSLLFLFLSLVRHTRNLKLSSLGSRDSSTEAHRRAMKMVMSFLFLFIVHFFSLQVANWIFFMLWNNKCIKFVMLALNAFPSCHSFILILGNSKLQQTAVRLLWHLRNYTKTPNPLPL
As for B3, the “change in membrane expression level” value was “increase” and the “Original Membrane expression level (%)” value is recorded as 1.66%.

B4: TAS2R38: original human bitterness receptor TAS2R38 (protein, listed as Homo sapiens)
chain: MLTLTRIRTVSYEVRSTFLFISVLEFAVGFLTNAFVFLVNFWDVVKRQALSNSDCVLLCLSISRLFLHGLLFLSAIQLTHFQKLSEPLNHSYQAIIMLWMIANQANLWLAACLSLLYCSKLIRFSHTFLICLASWVSRKISQMLLGIILCSCICTVLCVWCFFSRPHFTVTTVLFMNNNTRLNWQIKDLNLFYSFLFCYLWSVPPFLLFLVSSGMLTVSLGRHMRTMKVYTRNSRDPSLEAHIKALKSLVSFFCFFVISSCAAFISVPLLILWRDKIGVMVCVGIMAACPSGHAAILISGNAKLRRAVMTILLWAQSSLKVRADHKADSRTLC
Turning to B4, the “change in membrane expression level” value is listed as “increase” and the “Original Membrane expression level (%)” value amounted to 2.63%.

B5: GPR171: original human GPR171 (protein, listed as Homo sapiens)
chain: MTNSSFFCPVYKDLEPFTYFFYLVFLVGIIGSCFATWAFIQKNTNHRCVSIYLINLLTADFLLTLALPVKIVVDLGVAPWKLKIFHCQVTACLIYINMYLSIIFLAFVSIDRCLQLTHSCKIYRIQEPGFAKMISTVVWLMVLLIMVPNMMIPIKDIKEKSNVGCMEFKKEFGRNWHLLTNFICVAIFLNFSAIILISNCLVIRQLYRNKDNENYPNVKKALINILLVTTGYIICFVPYHIVRIPYTLSQTEVITDCSTRISLFKAKEATLLLAVSNLCFDPILYYHLSKAFRSKVTETFASPKETKAQKEKLRCENNA
B5: the “change in membrane expression level” value was “increase” and the “Original Membrane expression level (%)” value is recorded as 91.17%.

B6: TAS2R16: original human bitterness receptor TAS2R16 (protein, listed as Homo sapiens)
chain: MIPIQLTVFFMIIYVLESLTIIVQSSLIVAVLGREWLQVRRLMPVDMILISLGISRFCLQWASMLNNFCSYFNLNYVLCNLTITWEFFNILTFWLNSLLTVFYCIKVSSFTHHIFLWLRWRILRLFPWILLGSLMITCVTIIPSAIGNYIQIQLLTMEHLPRNSTVTDKLENFHQYQFQAHTVALVIPFILFLASTIFLMASLTKQIQHHSTGHCNPSMKARFTALRSLAVLFIVFTSYFLTILITIIGTLFDKRCWLWVWEAFVYAFILMHSTSLMLSSPTLKRILKGKC
With B6, the “change in membrane expression level” value is “increase” and the “Original Membrane expression level (%)” value is reported as 36.00%.

B7: VN1R2: original human vomeronasal receptor VN1R2 (protein, listed as Homo sapiens)
chain: MTHTLYPTPFALYPINISAAWHLGPLPVSCFVSNKYQCSLAFGATTGLRVLVVVVPQTQLSFLSSLCLVSLFLHSLVSAHGEKPTKPVGLDPTLFQVVVGILGNFSLLYYYMFLYFRGYKPRSTDLILRHLTVADSLVILSKRIPETMATFGLKHFDNYFGCKFLLYAHRVGRGVSIGSTCLLSVFQVITINPRNSRWAEMKVKAPTYIGLSNILCWAFHMLVNAIFPIYTTGKWSNNNITKKGDLGYCSAPLSDEVTKSVYAALTSFHDVLCLGLMLWASSSIVLVLYRHKQQVQHICRNNLYPNSSPGNRAIQSILALVSTFALCYALSFITYVYLALFDNSSWWLVNTAALIIACFPTISPFVLMCRDPSRSRLCSICCRRNRRFFHDFRKM
B7: the “change in membrane expression level” value is “increase” and the “Original Membrane expression level (%)” value was −0.05%.

B8: VN1R5: original human vomeronasal receptor VN1R5 (protein, listed as Homo sapiens)
chain: MLKLVIIENMAEIMLFSLDLLLFSTDILCFNFPSKMIKLPGFITIQIFFYPQASFGISANTILLLFHIFTFVFSHRSKSIDMIISHLSLIHILLLFTQAILVSLDFFGSQNTQDDLRYKVIVFLNKVMRGLSICTPCLLSVLQAIISPSIFSLAKLKHPSASHILGFFLFSWVLNMFIGVIFCCTLRLPPVKRGQSSVCHTALFLFAHELHPQETVFHTNDFEGCHLYRVHGPLKRLHGDYFIQTIRGYLSAFTQPACPRVSPVKRASQAILLLVSFVFTYWVDFTFSFSGGVTWINDSLLVWLQVIVANSYAAISPLMLIYADNQIFKTLQMLWFKYLSPPKLMLKFNRQCGSTKK
Turning to B8, the “change in membrane expression level” value is reported as “increase” and the “Original Membrane expression level (%)” value came out at 0.18%.

B9: VN1R4: original human vomeronasal receptor VN1R4 (protein, listed as Homo sapiens)
chain: MASRYVAVGMILSQTVVGVLGSFSVLLHYLSFYCTGCRLRSTDLIVKHLIVANFLALRCKGVPQTMAAFGVRYFLNALGCKLVFYLHRVGRGVSIGTTCLLSVFQVITVSSRKSRWAKLKEKAPKHVGFSVLLCWIVCMLVNIIFPMYVTGKWNYTNITVNEDLGYCSGGGNNKIAQTLRAMLLSFPDVLCLGLMLWVSSSMVCILHRHKQRVQHIDRSNLSPRASPENRATQSILILVSTFVSSYTLSCLFQVCMALLDNPNSLLVNTSALMSVCFPTLSPFVLMSCDPSVYRFCFAWKR
Take B9: the “change in membrane expression level” value is listed as “increase” and the “Original Membrane expression level (%)” value is on record as 0.37%.

The values are drawn from US20250353895A1, “METHOD FOR ANALYZING G-PROTEIN CONJUGATED RECEPTOR” (Kao Corporation, priority 2022, published 2025).
